In US10159725B2 (priority 2010, dated 2018):

Experiment: general procedure: Fmoc solid-phase peptide synthesis
Settings: whole synthesis, rel. area %, acetate

Sequence | final HPLC purity [%]
AYLVYTDRL (listed as Homo sapiens) | 94.4
FYISPVNKL (listed as Homo sapiens) | 98.6
HYKPTPLYF (listed as Homo sapiens) | 90.7
LYQILQGIVF (listed as Homo sapiens) | 94.8
NYLLYVSNF (listed as Homo sapiens) | 96.3
NYLPFIMEL (listed as Homo sapiens) | 95.1
SYIDVLPEF (listed as Homo sapiens) | 96.0
SYIIDPLNL (listed as Homo sapiens) | 97.1
SYNPLWLRI (listed as Homo sapiens) | 92.5
VWSDVTPLIF (VWSDVTPLTF; listed as Homo sapiens) | 96.1
VYIEKNDKL (listed as Homo sapiens) | 99.1
YYNAAGFNKL (listed as Homo sapiens) | 97.3

Where a sequence shows no end group, the ends are not given.
